Source: patent US20030059419A1
No constants are given. Whether binding was seen depends on the method and setting. In cells and extracts the contact can be indirect. Some entries that bind do so weakly or less than the wild type. Where a sequence is shown, tags or fusion partners need not be part of it.

What was measured:
[1] = target: T1, Myc-I-TRAF (human I-TRAF, full length, with a Myc epitope added to the N-terminal) (human) (UniProt Q92844); test: co-immunoprecipitation and western blot from transfected cells
T1 sequence (looked up): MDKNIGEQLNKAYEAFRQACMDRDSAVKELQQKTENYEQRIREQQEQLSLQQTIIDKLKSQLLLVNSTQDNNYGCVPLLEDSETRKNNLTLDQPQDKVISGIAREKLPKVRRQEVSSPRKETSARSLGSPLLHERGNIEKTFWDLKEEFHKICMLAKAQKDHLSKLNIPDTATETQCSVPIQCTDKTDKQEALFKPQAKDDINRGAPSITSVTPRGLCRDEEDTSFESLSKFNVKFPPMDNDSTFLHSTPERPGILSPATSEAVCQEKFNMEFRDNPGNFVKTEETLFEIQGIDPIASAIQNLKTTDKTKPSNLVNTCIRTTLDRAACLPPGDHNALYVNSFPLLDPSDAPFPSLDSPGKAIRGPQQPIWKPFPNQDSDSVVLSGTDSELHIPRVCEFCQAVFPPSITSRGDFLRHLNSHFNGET

[2] = target: T1, Myc-I-TRAF (human I-TRAF, full length, with a Myc epitope added to the N-terminal) (human); test: summary of the yeast two hybrid and co-immunoprecipitation experiments
[3] = target: T1, Myc-I-TRAF (human I-TRAF, full length, with a Myc epitope added to the N-terminal) (human); test: co-immunoprecipitation from COS-7 cells (anti-Myc or anti-Flag IP, anti-Flag or anti-Myc western blot)

Measured: binding

B1: Flag-IKK-i (human IKK-i with a Flag epitope linked to the N-terminal) (enzyme, not shown: small tags and cut ends)
chain: MQSTANYLWHTDDLLGQGATASVYKARNKKSGELVAVKVFNTTSYLRPREVQVREFEVLRKLNHQNIVKLFAVEETGGSRQKVLVMEYCSSGSLLSVLESPENAFGLPEDEFLVVLRCVVAGMNHLRENGIVHRDIKPGNIMRLVGEEGQSIYKLTDFGAARELDDDEKFVSVYGTEEYLHPDMYERAVLRKPQQKAFGVTVDLWSIGVTLYHAATGSLPFIPFGGPRRNKEIMYRITTEKPAGAIAGAQRRENGPLEWSYTLPITCQLSLGLQSQLVPILANILEVEQAKCWGFDQFFAETSDILQRVVVHVFSLSQAVLHHIYIHAHNTIAIFQEAVHKQTSVAPRHQEYLFEGHLCVLEPSVSAQHIAHTTASSPLTLFSTAIPKGLAFRDPALDVPKFVPKVDLQADYNTAKGVLGAGYQALRLARALLDGQELMFRGLHWVMEVLQATCRRTLEVARTSLLYLSSSLGTERFSSVAGTPEIQELKAAAELRSRLRTLAEVLSRCSQNITETQESLSSLNRELVKSRDQVHEDRSIQQIQCCLDKMNFIYKQFKKSRMRPGLGYNEEQIHKLDKVNFSHLAKRLLQVFQEECVQKYQASLVTHGKRMRVVHETRNHLRLVGCSVAACNTEAQGVQESLSKLLEELSHQLLQDRAKGAQASPPPIAPYPSPTRKDLLLHMQELCEGMKLLASDLLDNNRIIERLNRVPAPPDV
binds: all assays above
